Data as given in PubChem BioAssay AID1259254 (NCATS, 2017)
Test: 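Finding genes that stop cells copying their DNA twice in one cycle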 (primary screen). Cells: human HCT116 colorectal cancer cells. Reagents: single siRNA against human genes. Time to read-out: 3 days. Detection: 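Imaged Hoechst DNA stain sorts each cell into a cycle phase by DNA amount; per plate, G2 fraction set to 0% for non-targeting and 100% for GMNN siRNA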. Scale: G2 robust z-score: higher = more G2 cells, more excess DNA replication. Rule for the call: 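Active siRNAs have a G2 robust z of 5 or more median absolute deviations over the median, which in these data means about 38% or higher of GMNN control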.
The whole screen tested about 59,000 reagents; this is an unselected part. About 1,550 of all reagents (2.6%) were called active. 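G2 share is only a proxy for re-replication; each gene was hit by three separate siRNAs, and active genes were retested.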 Entries without a mark were called inactive. The numbers tell different reagents against one gene apart. Not all columns of the deposit are shown. Not stated in the record: the amount of reagent.

The first 2 entries as a preview:
gene | siRNA no. | G2 robust z-score
FRZB | 1 | 0.561
FRZB | 2 | 1.61

The listing, from the start:
gene | siRNA no. | G2 robust z-score
FRZB | 1 | 0.561
FRZB | 2 | 1.61
FRZB | 3 | -0.742
GPSM1 | 1 | -1.01
GPSM1 | 2 | 0.0585
GPSM1 | 3 | -0.8
KLK9 | 1 | -1.08
KLK9 | 2 | -0.749
KLK9 | 3 | -0.972
RHEBL1 | 1 | -0.696
RHEBL1 | 2 | 0.672
RHEBL1 | 3 | -0.0859
IMPA1 | 1 | -0.643
IMPA1 | 2 | -0.288
IMPA1 | 3 | -0.858
OR10H2 | 1 | 0.382
OR10H2 | 2 | -0.091
OR10H2 | 3 | -0.196
MYSM1 | 1 | -0.509
MYSM1 | 2 | -0.63
MYSM1 | 3 | -1.1
PNLIPRP1 | 1 | 0.279
PNLIPRP1 | 2 | 1.68
PNLIPRP1 | 3 | 3.04
OR13C8 | 1 | 1.45
OR13C8 | 2 | -0.549
OR13C8 | 3 | -0.361
JSRP1 | 1 | -1.15
JSRP1 | 2 | -0.558
JSRP1 | 3 | -1.01
LOC150935 | 1 | 0.506
LOC150935 | 2 | -0.82
LOC150935 | 3 | 0.125
VIRMA | 1 | 0.761
VIRMA | 2 | -0.626
VIRMA | 3 | 2.08
DEFB131A | 1 | -0.528
DEFB131A | 2 | -0.157
DEFB131A | 3 | 0.0428
RASSF4 | 1 | 1.27
RASSF4 | 2 | -0.639
RASSF4 | 3 | -0.577
METRNL | 1 | 1.35
METRNL | 2 | -0.234
METRNL | 3 | -0.0101
CDHR1 | 1 | -0.998
CDHR1 | 2 | 7.89 (active)
CDHR1 | 3 | -0.926
